This note sets out measurements from publication doi:10.1101/2022.12.14.520480.

No constants are given. Whether binding was seen depends on the method and setting. Binding seen in cells or lysates may run through a third protein. Here binding means that the protein was enriched with, or labelled near, the bait; the list need not be complete. Tags and fused reporters may be left off the sequences shown.

The assay concerns the target T1, HA-TBC1D15 wild type (UniProt Q8TC07).
T1 sequence: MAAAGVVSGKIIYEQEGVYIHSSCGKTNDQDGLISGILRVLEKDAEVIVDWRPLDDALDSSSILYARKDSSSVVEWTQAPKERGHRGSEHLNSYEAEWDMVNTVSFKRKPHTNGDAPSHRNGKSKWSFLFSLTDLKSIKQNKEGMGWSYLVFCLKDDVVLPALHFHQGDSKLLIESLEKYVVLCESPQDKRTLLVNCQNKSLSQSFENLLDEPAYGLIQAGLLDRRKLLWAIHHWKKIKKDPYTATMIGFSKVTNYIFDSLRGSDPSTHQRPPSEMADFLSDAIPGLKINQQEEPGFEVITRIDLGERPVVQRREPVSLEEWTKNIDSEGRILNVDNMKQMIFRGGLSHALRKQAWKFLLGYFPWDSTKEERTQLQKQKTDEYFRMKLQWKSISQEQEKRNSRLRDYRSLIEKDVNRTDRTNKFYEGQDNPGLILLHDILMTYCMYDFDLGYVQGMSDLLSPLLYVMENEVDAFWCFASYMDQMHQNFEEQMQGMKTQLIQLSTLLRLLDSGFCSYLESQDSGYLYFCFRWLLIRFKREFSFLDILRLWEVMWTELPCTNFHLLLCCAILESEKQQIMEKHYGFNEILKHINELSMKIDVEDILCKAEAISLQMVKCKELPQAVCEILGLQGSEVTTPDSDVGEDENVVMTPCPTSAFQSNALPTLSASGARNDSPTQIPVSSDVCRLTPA
Kind of assay: affinity purification with mass spectrometry.

In the case of “Clathrin heavy chain CLTC (endogenous) (from UniProt Q00610 1-1675)”, the binding entry is on record as “binds”.
